Experimental data: patent publication US20190085097A1 (published 2019)
No constants are given. Whether binding was seen depends on the method and setting. Some entries that bind do so weakly or less than the wild type.

Protein sequences, listed by entry. Tags and fused reporters are not part of them. Lines headed by an entry give the natural chain unless they say otherwise; changes in a name come on top. Residues count along the entry.
UniProt P00747: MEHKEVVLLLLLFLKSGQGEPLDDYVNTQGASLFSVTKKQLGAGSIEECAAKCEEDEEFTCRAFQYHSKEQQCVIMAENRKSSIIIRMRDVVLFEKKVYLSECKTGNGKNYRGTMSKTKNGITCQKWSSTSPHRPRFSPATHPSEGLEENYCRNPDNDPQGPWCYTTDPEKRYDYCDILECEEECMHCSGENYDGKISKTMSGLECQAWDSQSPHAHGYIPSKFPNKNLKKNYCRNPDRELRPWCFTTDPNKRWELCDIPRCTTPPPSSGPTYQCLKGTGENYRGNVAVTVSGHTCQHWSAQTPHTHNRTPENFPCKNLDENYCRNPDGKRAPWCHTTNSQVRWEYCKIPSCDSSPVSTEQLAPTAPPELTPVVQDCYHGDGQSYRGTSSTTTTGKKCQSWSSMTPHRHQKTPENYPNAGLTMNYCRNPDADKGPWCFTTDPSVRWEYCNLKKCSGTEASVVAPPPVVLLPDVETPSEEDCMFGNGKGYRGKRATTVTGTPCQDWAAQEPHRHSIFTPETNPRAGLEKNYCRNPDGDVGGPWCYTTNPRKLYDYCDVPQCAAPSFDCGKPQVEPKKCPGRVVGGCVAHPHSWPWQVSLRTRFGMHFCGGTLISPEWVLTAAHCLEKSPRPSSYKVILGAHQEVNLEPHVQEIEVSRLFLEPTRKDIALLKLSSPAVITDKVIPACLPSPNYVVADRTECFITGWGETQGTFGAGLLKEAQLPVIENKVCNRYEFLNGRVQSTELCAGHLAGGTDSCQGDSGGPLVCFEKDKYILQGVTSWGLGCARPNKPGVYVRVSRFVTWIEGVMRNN
protease domain of plasmin (microplasmin): residues 562-810 of P00747

Experiments:
[1] = target: human plasmin (human, UniProt P00747 97-810, limits assumed); test: summary of binding and inhibition assays
[2] = target: protease domain of plasmin (microplasmin) (human) (UniProt P00747); test: summary of ELISA and immunoblot
[3] = target: protease domain of plasmin (microplasmin) (human) (UniProt P00747); test: immunoblot of reduced human plasmin

binding [1]: binds
binding [2]: binds
binding [3]: binds
B1: monoclonal antibody plasmin inhibitor (Pi) (antibody, mouse IgG1, kappa, V domains shown)
VH: EVKLLESGGGLVQPGGSLKLSCAASGFDFSRYWMSWVRQAPGKGLEWIGEINPDSSTINYTPSLKDKFIISRDNAKNSLYLQMSKVRSEDTALYYCASYCGYSYDALDCWGQGTSVTVSS
VL: DIQMTQSPSSLSASLGGKVSITCKASQDINKYISWYQHKPGKGPRLLIHYTSTLQPGIPSRFSGSGSGRDYSFSISNLEPEDIATYYCLQYDNLYTFGGGTKLEIKR
notes: Mouse hybridoma IgG purified from supernatant; also called Pi IgG; Pi MAb38
